In this assay the target is T1, HA-NOD1 (human) (UniProt Q9Y239).
T1 sequence: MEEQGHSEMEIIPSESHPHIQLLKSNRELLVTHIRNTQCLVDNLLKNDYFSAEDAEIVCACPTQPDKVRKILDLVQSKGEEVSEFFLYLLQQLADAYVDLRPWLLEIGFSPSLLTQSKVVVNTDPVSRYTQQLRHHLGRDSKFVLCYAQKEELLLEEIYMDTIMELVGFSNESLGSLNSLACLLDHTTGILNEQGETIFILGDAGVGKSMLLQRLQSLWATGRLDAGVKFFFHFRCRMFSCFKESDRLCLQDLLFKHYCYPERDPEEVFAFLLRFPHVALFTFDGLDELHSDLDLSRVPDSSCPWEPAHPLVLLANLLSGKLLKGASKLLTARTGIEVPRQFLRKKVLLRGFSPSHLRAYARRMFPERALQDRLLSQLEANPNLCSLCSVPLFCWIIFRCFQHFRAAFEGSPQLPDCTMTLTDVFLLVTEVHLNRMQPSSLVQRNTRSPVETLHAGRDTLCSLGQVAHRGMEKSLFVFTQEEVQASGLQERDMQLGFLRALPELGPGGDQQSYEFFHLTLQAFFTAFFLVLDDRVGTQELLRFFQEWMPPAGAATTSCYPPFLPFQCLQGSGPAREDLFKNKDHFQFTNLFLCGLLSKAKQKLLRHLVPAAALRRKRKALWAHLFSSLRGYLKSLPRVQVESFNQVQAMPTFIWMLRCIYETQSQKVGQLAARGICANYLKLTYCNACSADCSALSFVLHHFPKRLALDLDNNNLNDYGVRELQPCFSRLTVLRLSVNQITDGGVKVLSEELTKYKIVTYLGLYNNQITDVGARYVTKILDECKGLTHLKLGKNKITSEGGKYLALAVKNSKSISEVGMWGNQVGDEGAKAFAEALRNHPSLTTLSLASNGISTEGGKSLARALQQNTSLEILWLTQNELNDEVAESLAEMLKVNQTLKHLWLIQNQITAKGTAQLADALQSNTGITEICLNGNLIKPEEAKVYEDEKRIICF
Kind of assay: co-IP; HA-tagged NOD1/2 immunoprecipitated with anti-HA mAb from lysates of HEK293T cells coexpressing GIV, stimulated or not with MDP; immunoblot. For orientation: A western blot detects proteins with antibodies after separation by electrophoresis.

These are yes or no findings as the source states them, for the method shown. In cells and extracts the contact can be indirect. Tags and fused reporters may be left off the sequences shown.

For the substance GIV-FLAG, the binding result was “no binding”.

(Values after publication PMC12646664.)
